The source of these data is article PMC11103573.

Protein sequences, listed by entry. Tags and fused reporters are not part of them. Lines headed by an entry give the natural chain unless they say otherwise; changes in a name come on top.
UniProt Q88D21: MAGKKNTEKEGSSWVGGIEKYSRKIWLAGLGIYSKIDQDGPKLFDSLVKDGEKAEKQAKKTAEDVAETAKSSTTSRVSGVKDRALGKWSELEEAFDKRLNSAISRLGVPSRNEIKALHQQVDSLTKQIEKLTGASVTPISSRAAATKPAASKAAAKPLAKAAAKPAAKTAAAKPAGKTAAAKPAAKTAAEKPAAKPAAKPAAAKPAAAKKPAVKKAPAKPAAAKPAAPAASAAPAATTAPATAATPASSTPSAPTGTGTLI
UniProt Q88D22: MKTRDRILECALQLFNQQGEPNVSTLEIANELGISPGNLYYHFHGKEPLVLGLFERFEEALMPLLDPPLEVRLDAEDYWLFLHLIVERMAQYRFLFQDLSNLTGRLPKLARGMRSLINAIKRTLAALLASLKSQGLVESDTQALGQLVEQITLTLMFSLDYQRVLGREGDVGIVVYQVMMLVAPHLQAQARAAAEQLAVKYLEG

Test [1] concerns the target T1, Poly granule-associated protein PhaI (Pseudomonas putida KT2440) (UniProt Q88D20).
T1 sequence: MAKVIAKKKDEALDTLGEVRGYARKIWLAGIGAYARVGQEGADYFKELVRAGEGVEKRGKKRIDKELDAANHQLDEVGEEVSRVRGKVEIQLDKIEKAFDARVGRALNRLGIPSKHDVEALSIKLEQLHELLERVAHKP
As to the kind of experiment: affinity purification with mass spectrometry; Round 1: baits PhaI, PhaD, PhaZ and PhaC1 with eYFP; cultures on nitrogen-limited media, harvested after 24 h; lysate on GFP-Trap agarose, 1 h at 4 °C, 10 mM Tris pH 8, 150 mM NaCl; on-bead trypsin digest, LCMS; compared with unfused eYFP null control.

Test [2] addresses PHA polymerase PhaC1 (Pseudomonas putida KT2440) (UniProt Q88D25). The description is as above.
Test [3] addresses T2, Peptidoglycan-associated lipoprotein, OprL/Pal (Pseudomonas putida KT2440) (UniProt P0A138).
T2 sequence: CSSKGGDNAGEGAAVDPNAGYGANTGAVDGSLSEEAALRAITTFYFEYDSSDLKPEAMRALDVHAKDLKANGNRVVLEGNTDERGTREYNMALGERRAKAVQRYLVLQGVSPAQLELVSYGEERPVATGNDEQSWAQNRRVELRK
In words: affinity purification with mass spectrometry; Round 2 (reverse orientation): baits PDH-E1, Q88F99 and OprL with eYFP; same APMS protocol as in the primary screen; compared with unfused eYFP null control.

For test [4], the target named is T3, Pyruvate dehydrogenase E1 component (Pseudomonas putida KT2440) (UniProt Q88QZ5).
T3 sequence: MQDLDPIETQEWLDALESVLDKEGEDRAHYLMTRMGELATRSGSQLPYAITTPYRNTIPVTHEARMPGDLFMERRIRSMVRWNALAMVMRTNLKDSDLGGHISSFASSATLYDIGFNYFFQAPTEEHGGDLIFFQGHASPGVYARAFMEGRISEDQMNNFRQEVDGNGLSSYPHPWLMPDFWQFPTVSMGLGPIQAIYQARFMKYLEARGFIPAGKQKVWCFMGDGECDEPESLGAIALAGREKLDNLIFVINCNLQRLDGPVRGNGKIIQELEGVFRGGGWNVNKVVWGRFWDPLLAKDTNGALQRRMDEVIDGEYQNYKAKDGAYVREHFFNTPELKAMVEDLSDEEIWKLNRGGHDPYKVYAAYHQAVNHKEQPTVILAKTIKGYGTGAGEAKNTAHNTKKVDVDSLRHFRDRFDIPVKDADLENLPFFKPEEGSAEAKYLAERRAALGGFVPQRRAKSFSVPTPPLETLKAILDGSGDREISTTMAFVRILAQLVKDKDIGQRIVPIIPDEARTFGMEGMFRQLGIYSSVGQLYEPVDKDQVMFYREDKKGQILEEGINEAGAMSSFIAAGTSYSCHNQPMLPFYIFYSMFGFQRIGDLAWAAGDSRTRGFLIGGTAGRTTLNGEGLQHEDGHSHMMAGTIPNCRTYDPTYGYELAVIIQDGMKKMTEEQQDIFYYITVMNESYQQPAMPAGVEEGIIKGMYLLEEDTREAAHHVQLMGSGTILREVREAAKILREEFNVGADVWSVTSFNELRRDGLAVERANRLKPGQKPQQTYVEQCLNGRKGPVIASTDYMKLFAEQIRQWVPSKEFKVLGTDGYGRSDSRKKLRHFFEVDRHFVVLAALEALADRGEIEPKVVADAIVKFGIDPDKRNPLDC
The test is described as above.

Test [5] addresses T1, Poly granule-associated protein PhaI (Pseudomonas putida KT2440). In words: affinity purification with mass spectrometry; Round 1: baits PhaI, PhaD, PhaZ and PhaC1 with eYFP; cultures on nitrogen-limited media, harvested after 24 h; lysate on GFP-Trap agarose, 1 h at 4 °C, 10 mM Tris pH 8, 150 mM NaCl; on-bead trypsin digest, LCMS; compared with unfused eYFP null control. This is another data set of the same source.

Where two headings read alike, the source gives them in different places. These are yes or no findings as the source states them, for the method shown. Binding seen in cells or lysates may run through a third protein. Here binding means that the protein was enriched with, or labelled near, the bait; the list need not be complete. For some assays here: A no says only that the protein was not detected with the bait.

On to “PHA depolymerase PhaZ (from UniProt Q88D24) (enzyme)”, for which the binding entry in test [1] and in test [2] was “no binding” throughout.

For the molecule “PHA granule-associated protein PhaF (from UniProt Q88D21)”, the binding entry in test [3], in test [4] and in test [1] was “binds” each time.

On to “PHA polymerase PhaC1 (from UniProt Q88D25) (enzyme)”, for which the binding entry in test [1] was “no binding”.

In the case of “Transcription factor PhaD (from UniProt Q88D22)”, the binding result in test [1] was “binds”.

For “lipoamide dehydrogenase (E3) (Pseudomonas putida KT2440 (endogenous)) (enzyme)”, the binding result in test [4] is recorded as “no binding”.

B1: Poly granule-associated protein PhaI (protein, UniProt Q88D20 1-139)
chain: MAKVIAKKKDEALDTLGEVRGYARKIWLAGIGAYARVGQEGADYFKELVRAGEGVEKRGKKRIDKELDAANHQLDEVGEEVSRVRGKVEIQLDKIEKAFDARVGRALNRLGIPSKHDVEALSIKLEQLHELLERVAHKP
As to B1, the binding entry in test [4] was “binds”.

B2: TolB (protein, UniProt P0A173 22-433)
chain: EEKNILVTSGSDRATPIAVVPFGLQGGSVLPEDIADIIGNDLRNSGYYSPIPRQNMISQPSQASEVIFRDWKALGAQYVMVGSIVPSGGRLQVQYALFNVATEQQVLTGSVAGSTDQLRDMAHYIADQSFEKLTGIKGAFSTRMLYVTAERFSTNNTRYTLQRSDYDGARAVTLLQSREPILSPRFAPDGKRIAYVSFEQKRPRIFVQNIDTGRREQVTNFEGLNGAPAWSPDGSRLAFVLSKDGNPDIYVMNVASRQISRVTAGPGINTEPFWGKDGNTLYFTSDRGGKPQIYKQSVSGGGAERVTFVGNYNANPKLSADEKTLVMIHRQQGFTNFKVAAQDLQRGSVKILSETSLDESPTVAPNGTMLIYATRQQGRGVLMLVSLNGRVRLPLPTAQGEVREPSWSPYLN
Take B2: the binding result in test [3] is given as “binds”.

B3: Pyruvate dehydrogenase E1 component (enzyme, UniProt Q88QZ5 1-881)
chain: MQDLDPIETQEWLDALESVLDKEGEDRAHYLMTRMGELATRSGSQLPYAITTPYRNTIPVTHEARMPGDLFMERRIRSMVRWNALAMVMRTNLKDSDLGGHISSFASSATLYDIGFNYFFQAPTEEHGGDLIFFQGHASPGVYARAFMEGRISEDQMNNFRQEVDGNGLSSYPHPWLMPDFWQFPTVSMGLGPIQAIYQARFMKYLEARGFIPAGKQKVWCFMGDGECDEPESLGAIALAGREKLDNLIFVINCNLQRLDGPVRGNGKIIQELEGVFRGGGWNVNKVVWGRFWDPLLAKDTNGALQRRMDEVIDGEYQNYKAKDGAYVREHFFNTPELKAMVEDLSDEEIWKLNRGGHDPYKVYAAYHQAVNHKEQPTVILAKTIKGYGTGAGEAKNTAHNTKKVDVDSLRHFRDRFDIPVKDADLENLPFFKPEEGSAEAKYLAERRAALGGFVPQRRAKSFSVPTPPLETLKAILDGSGDREISTTMAFVRILAQLVKDKDIGQRIVPIIPDEARTFGMEGMFRQLGIYSSVGQLYEPVDKDQVMFYREDKKGQILEEGINEAGAMSSFIAAGTSYSCHNQPMLPFYIFYSMFGFQRIGDLAWAAGDSRTRGFLIGGTAGRTTLNGEGLQHEDGHSHMMAGTIPNCRTYDPTYGYELAVIIQDGMKKMTEEQQDIFYYITVMNESYQQPAMPAGVEEGIIKGMYLLEEDTREAAHHVQLMGSGTILREVREAAKILREEFNVGADVWSVTSFNELRRDGLAVERANRLKPGQKPQQTYVEQCLNGRKGPVIASTDYMKLFAEQIRQWVPSKEFKVLGTDGYGRSDSRKKLRHFFEVDRHFVVLAALEALADRGEIEPKVVADAIVKFGIDPDKRNPLDC
Turning to B3, the binding entry in test [5] is given as “binds”.
